Test results: the supplement of paper PMC10849652
This is one part of the list.

The chains behind the UniProt entries cited, without tags or fusion partners. Where a name states a change or a piece, a line headed by the entry shows the natural chain unless it says otherwise.
UniProt O00534: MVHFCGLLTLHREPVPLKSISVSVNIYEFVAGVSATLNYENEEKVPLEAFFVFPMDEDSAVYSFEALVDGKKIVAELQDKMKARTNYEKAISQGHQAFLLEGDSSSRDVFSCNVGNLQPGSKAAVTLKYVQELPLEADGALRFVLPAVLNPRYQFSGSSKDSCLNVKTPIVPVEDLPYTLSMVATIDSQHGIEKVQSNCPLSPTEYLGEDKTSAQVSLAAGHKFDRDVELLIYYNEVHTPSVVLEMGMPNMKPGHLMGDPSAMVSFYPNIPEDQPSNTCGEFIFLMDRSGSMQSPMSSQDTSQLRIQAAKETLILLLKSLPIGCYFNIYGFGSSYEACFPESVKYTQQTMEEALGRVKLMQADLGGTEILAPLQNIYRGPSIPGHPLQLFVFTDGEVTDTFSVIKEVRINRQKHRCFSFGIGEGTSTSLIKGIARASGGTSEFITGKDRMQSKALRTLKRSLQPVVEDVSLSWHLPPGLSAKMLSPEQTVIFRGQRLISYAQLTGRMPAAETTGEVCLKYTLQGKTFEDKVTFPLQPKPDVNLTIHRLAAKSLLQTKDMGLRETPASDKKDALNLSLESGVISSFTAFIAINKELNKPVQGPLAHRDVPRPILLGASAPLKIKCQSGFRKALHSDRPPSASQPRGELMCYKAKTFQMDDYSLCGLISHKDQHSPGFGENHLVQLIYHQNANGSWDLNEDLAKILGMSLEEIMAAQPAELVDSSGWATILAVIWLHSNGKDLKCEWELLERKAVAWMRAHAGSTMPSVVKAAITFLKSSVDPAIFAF
UniProt Q7Z5K2: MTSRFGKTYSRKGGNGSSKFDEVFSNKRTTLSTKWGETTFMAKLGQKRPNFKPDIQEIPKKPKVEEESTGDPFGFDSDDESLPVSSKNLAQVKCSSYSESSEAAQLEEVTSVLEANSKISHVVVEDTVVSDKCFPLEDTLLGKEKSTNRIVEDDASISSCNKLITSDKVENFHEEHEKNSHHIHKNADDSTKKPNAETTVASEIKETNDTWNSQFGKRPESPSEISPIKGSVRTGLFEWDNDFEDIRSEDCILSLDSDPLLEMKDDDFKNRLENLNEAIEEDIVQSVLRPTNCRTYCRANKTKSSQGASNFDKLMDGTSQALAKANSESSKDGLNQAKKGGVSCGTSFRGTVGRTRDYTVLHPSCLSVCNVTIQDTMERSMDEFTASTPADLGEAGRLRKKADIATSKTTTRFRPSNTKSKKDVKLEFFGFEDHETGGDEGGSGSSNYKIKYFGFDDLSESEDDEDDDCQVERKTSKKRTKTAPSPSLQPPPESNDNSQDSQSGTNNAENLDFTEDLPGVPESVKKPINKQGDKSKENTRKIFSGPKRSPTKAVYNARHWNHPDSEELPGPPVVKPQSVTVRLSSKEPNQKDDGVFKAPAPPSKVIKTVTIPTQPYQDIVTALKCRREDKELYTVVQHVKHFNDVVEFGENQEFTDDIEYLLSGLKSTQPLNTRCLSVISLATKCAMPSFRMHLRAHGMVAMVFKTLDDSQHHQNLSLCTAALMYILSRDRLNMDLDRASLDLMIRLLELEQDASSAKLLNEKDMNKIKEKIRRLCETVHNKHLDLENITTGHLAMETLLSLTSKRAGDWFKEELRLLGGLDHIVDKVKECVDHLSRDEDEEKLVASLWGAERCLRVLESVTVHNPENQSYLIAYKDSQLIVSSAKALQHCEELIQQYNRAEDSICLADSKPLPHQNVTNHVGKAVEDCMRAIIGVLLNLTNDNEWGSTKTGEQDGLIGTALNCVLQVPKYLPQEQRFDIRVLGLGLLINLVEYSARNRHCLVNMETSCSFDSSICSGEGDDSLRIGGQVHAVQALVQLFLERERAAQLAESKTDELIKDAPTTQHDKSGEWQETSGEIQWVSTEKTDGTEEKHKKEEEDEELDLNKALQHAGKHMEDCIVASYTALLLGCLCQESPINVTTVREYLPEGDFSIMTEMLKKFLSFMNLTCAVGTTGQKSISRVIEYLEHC
UniProt Q9BV38: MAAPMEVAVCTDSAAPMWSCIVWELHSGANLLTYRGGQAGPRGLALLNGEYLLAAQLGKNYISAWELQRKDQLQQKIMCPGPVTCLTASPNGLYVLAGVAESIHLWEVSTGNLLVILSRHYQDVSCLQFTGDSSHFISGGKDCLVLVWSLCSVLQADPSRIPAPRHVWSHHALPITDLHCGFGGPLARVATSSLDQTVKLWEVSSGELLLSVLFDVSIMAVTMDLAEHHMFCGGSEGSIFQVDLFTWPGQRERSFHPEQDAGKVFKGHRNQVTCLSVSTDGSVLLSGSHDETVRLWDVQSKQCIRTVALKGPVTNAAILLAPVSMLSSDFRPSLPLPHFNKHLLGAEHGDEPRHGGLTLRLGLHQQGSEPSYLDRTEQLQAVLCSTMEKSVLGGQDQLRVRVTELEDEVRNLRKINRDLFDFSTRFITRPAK
UniProt Q8NEZ2: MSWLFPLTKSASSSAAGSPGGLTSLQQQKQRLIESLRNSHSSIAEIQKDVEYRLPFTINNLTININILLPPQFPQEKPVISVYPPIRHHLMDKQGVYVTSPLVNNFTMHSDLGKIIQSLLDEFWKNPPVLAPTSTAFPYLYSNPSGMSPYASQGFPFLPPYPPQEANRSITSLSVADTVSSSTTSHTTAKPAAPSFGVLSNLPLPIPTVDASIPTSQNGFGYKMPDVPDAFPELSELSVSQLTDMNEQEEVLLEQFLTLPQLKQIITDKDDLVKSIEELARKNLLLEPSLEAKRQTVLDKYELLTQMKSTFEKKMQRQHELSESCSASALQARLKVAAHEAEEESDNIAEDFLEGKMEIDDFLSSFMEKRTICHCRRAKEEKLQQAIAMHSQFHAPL
UniProt Q5MNZ6: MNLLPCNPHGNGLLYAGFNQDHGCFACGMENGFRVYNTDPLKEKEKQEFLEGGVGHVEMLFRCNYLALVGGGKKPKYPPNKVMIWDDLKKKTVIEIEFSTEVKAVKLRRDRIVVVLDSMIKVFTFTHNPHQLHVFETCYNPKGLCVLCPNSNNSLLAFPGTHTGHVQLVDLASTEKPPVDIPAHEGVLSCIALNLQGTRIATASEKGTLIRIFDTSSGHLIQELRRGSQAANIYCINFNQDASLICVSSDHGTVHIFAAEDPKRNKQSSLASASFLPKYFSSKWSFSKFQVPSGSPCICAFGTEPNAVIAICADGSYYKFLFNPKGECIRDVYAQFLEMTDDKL
UniProt Q96JG6: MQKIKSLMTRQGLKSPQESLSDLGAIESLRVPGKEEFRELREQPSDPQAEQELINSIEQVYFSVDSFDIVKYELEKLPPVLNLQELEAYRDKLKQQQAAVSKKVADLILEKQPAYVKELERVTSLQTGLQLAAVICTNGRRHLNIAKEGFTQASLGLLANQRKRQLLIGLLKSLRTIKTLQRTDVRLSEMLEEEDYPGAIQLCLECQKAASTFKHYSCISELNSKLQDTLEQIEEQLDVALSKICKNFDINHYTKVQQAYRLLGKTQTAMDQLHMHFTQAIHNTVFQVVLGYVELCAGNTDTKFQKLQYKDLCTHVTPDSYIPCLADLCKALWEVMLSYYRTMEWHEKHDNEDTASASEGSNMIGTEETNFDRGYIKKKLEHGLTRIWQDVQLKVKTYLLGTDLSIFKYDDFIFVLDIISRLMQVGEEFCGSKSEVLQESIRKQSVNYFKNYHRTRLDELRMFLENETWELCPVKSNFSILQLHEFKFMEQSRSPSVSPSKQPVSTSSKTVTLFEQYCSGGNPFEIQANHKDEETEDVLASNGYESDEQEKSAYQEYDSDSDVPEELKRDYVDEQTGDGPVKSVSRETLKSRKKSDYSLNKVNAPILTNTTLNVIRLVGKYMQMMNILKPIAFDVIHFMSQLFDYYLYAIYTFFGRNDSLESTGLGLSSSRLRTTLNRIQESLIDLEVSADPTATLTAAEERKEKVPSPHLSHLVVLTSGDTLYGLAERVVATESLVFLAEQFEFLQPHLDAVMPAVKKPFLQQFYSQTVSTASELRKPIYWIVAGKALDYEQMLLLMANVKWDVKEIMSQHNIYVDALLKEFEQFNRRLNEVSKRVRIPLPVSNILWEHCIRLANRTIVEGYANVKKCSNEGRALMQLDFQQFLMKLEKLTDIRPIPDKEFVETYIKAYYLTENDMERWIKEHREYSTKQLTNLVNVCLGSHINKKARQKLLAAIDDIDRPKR
UniProt Q86VN1: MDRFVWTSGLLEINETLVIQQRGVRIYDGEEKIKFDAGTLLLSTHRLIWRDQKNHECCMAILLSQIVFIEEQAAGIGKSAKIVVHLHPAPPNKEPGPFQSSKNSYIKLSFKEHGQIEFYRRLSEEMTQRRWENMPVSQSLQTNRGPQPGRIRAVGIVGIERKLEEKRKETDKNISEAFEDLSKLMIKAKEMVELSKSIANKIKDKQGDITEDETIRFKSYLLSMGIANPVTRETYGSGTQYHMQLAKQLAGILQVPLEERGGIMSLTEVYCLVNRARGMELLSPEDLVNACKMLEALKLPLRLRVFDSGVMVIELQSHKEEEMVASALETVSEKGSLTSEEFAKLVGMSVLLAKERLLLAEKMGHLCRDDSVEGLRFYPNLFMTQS
UniProt Q6PJI9: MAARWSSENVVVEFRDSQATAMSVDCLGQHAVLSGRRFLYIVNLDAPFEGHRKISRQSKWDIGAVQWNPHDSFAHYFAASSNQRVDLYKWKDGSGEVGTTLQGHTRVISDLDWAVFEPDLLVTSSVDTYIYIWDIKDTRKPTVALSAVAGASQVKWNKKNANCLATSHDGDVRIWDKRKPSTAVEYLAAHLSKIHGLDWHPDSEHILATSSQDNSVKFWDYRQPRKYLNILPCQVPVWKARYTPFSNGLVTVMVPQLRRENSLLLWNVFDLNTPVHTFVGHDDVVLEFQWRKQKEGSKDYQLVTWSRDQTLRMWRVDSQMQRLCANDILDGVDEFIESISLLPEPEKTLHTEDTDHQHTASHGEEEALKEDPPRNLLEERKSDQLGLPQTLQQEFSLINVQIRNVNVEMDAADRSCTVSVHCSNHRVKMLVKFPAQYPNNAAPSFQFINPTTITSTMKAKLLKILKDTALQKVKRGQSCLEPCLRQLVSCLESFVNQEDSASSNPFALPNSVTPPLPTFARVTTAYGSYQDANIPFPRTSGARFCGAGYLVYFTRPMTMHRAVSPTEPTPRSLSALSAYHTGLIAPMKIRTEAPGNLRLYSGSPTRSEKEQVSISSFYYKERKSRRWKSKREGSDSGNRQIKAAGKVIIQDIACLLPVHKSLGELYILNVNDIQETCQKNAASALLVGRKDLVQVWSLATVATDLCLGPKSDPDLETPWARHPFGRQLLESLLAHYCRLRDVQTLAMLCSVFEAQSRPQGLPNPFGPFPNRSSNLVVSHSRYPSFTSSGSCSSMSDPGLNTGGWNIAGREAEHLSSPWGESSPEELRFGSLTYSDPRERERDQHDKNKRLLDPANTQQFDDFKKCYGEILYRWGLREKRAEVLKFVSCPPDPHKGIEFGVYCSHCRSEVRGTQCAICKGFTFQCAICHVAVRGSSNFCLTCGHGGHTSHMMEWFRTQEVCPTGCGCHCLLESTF
UniProt P09327: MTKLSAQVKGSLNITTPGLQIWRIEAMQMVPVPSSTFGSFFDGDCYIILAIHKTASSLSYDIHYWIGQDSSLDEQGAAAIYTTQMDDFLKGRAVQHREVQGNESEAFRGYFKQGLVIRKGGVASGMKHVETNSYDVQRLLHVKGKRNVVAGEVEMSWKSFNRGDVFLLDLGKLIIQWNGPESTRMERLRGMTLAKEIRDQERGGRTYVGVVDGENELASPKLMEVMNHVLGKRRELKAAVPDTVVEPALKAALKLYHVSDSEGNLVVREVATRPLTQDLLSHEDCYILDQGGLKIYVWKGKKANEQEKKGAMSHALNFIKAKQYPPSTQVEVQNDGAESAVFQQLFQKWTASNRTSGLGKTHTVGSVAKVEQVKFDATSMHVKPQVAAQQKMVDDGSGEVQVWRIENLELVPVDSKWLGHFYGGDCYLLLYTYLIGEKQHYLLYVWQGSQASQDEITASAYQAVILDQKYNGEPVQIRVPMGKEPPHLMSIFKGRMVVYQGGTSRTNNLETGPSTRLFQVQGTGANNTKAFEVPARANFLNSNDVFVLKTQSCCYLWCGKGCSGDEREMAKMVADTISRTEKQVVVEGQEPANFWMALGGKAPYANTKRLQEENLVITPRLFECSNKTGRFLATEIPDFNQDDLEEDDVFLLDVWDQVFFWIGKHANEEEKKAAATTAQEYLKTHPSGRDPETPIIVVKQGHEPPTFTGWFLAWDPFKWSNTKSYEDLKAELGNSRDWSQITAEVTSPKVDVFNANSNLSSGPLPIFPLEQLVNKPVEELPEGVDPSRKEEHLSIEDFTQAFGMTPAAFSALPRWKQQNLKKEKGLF
UniProt Q96AJ9: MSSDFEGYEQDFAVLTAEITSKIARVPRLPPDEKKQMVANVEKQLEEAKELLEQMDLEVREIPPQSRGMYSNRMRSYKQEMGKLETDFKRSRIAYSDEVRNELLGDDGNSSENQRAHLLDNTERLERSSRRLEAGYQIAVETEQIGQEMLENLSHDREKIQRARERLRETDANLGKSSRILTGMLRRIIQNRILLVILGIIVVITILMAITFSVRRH

What was measured:
Experiment in all cases: log2 fold change, soluble protein after heating vs DMSO (PISA); higher = thermal stabilisation; K562 cells, 10 uM, 30 min; active = over 0.2 and 3.5 SD of the protein, either way, in both replicates (recomputed)
bafetinib = compound: Cc1ccc(NC(=O)c2ccc(CN3CC[C@H](N(C)C)C3)c(C(F)(F)F)c2)cc1Nc1nccc(-c2cncnc2)n1 [bafetinib]
Outline: (§1)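 K562 cells (2×10^6 cells/mL) were treated with 10 μM compound for 30 min, and aliquots were heated for 3 min over 48°C-58°C. Pooled aliquots were extracted in PBS with 0.5% NP-40 at 4°C, and the supernatant after 21,000xg for 90 min was measured by TMTpro 16plex LC-MS/MS with channel sums equalised. Reported thermal stability, relative to control samples and from duplicates, is a log2 fold change.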

[1] = compound: Cc1cccc(CC(=O)N2CCc3c2ccc(-c2cn(C)c4ncnc(N)c24)c3F)n1
Outline: as §1

nilotinib = compound: Cc1cn(-c2cc(NC(=O)c3ccc(C)c(Nc4nccc(-c5cccnc5)n4)c3)cc(C(F)(F)F)c2)cn1 [nilotinib]
Outline: as §1

[2] = compound: Cc1nc(Nc2n[nH]c3c2CN(C(=O)N[C@H](CN(C)C)c2ccccc2)C3(C)C)c2sccc2n1
Outline: as §1

dasatinib = compound: Cc1nc(Nc2ncc(C(=O)Nc3c(C)cccc3Cl)s2)cc(N2CCN(CCO)CC2)n1 [dasatinib]
Outline: as §1

[3] = compound: Cc1ncc(-c2ccnc(Nc3ccc(S(C)(=O)=O)cc3)n2)n1C(C)C
Outline: as §1

[4] = compound: Cn1cc(-c2ccc3c(c2)CCN3C(=O)Cc2cccc(C(F)(F)F)c2)c2c(N)ncnc21
Outline: as §1

[5] = compound: Cn1cc(-c2ccc3nnc(C(F)(F)c4ccc5ncccc5c4)n3n2)cn1
Outline: as §1

tipifarnib = compound: Cn1cncc1[C@@](N)(c1ccc(Cl)cc1)c1ccc2c(c1)c(-c1cccc(Cl)c1)cc(=O)n2C [tipifarnib]
Outline: as §1

mubritinib = compound: FC(F)(F)c1ccc(/C=C/c2nc(COc3ccc(CCCCn4ccnn4)cc3)co2)cc1 [mubritinib]
Outline: as §1

Measured: log2 fold change

VWA5A (UniProt O00534)
inactive: bafetinib -0.108 | [1] -0.009 | nilotinib 0.006 | [2] -0.023 | dasatinib -0.006 | [3] 0.048 | [4] 0.111 | [5] 0.041 | tipifarnib -0.056 | mubritinib 0.03

VPS33B (UniProt Q9H267)
inactive: bafetinib 0.01 | [1] 0.04 | nilotinib -0.056 | [2] -0.158 | dasatinib -0.209 | [3] 0.099 | [4] 0.017 | [5] -0.069 | tipifarnib -0.107 | mubritinib 0.054

WAPL isoform 3 (UniProt Q7Z5K2)
inactive: bafetinib 0 | [1] -0.044 | nilotinib -0.011 | [2] 0.01 | dasatinib -0.081 | [3] -0.03 | [4] 0.04 | [5] 0.096 | tipifarnib -0.218 | mubritinib 0.156

WASHC2A (UniProt Q641Q2)
inactive: bafetinib -0.078 | [1] -0.025 | nilotinib 0.002 | [2] -0.039 | dasatinib 0.022 | [3] -0.012 | [4] -0.088 | [5] 0.035 | tipifarnib 0.052 | mubritinib 0.004

WDR43 (UniProt Q15061)
inactive: bafetinib -0.041 | [1] -0.052 | nilotinib -0.013 | [2] 0.033 | dasatinib 0.015 | [3] 0.102 | [4] -0.022 | [5] 0.013 | tipifarnib 0.005 | mubritinib -0.024

WDR18 (UniProt Q9BV38)
inactive: bafetinib -0.031 | [1] 0.05 | nilotinib -0.059 | [2] -0.024 | dasatinib 0 | [3] -0.048 | [4] 0.029 | [5] -0.016 | tipifarnib -0.018 | mubritinib 0.022

WNK1 isoform 7 (UniProt Q9H4A3)
inactive: bafetinib -0.038 | [1] 0.046 | nilotinib -0.029 | [2] -0.071 | dasatinib 0.102 | [3] 0.022 | [4] 0.178 | [5] -0.022 | tipifarnib -0.022 | mubritinib 0.036

WDCP (UniProt Q9H6R7)
inactive: bafetinib -0.052 | [1] -0.05 | nilotinib -0.149 | [2] -0.12 | dasatinib -0.074 | [3] -0.035 | [4] -0.099 | [5] -0.001 | tipifarnib -0.029 | mubritinib 0

VPS37A (UniProt Q8NEZ2)
inactive: bafetinib -0.065 | [1] -0.06 | nilotinib -0.134 | [2] -0.27 | dasatinib -0.168 | [3] -0.039 | [4] 0.048 | [5] 0.014 | tipifarnib -0.112 | mubritinib -0.038

VPS26B (UniProt Q4G0F5)
inactive: bafetinib -0.076 | [1] 0.007 | nilotinib 0.001 | [2] -0.018 | dasatinib -0.086 | [3] -0.02 | [4] 0.038 | [5] -0.003 | tipifarnib -0.02 | mubritinib 0.08

WIPI2 (UniProt Q9Y4P8)
inactive: bafetinib -0.065 | [1] -0.01 | nilotinib -0.015 | [2] -0.018 | dasatinib -0.068 | [3] -0.134 | [4] 0.08 | [5] -0.03 | tipifarnib -0.034 | mubritinib -0.025

VPS8 (UniProt Q8N3P4)
inactive: bafetinib 0.073 | [1] 0.043 | nilotinib -0.162 | [2] -0.018 | dasatinib -0.107 | [3] 0.035 | [4] -0.018 | [5] -0.083 | tipifarnib -0.078 | mubritinib 0.043

WDR45B (UniProt Q5MNZ6)
inactive: bafetinib -0.031 | [1] 0.046 | nilotinib 0.01 | [2] -0.012 | dasatinib -0.11 | [3] -0.023 | [4] 0.017 | [5] 0.002 | tipifarnib 0.036 | mubritinib -0.005

VPS50 (UniProt Q96JG6)
inactive: bafetinib 0.017 | [1] 0.088 | nilotinib -0.074 | [2] -0.077 | [3] 0.038 | [4] -0.019 | [5] -0.035 | tipifarnib -0.066 | mubritinib 0.045
active: dasatinib -0.257

VPS13D (UniProt Q5THJ4)
inactive: bafetinib 0.052 | [1] -0.042 | nilotinib -0.014 | [2] 0.017 | dasatinib 0.009 | [3] -0.003 | [4] 0.048 | [5] -0.125 | tipifarnib -0.002 | mubritinib 0.028

WBP4 (UniProt O75554)
inactive: bafetinib -0.043 | [1] 0.14 | nilotinib 0.001 | [2] -0.006 | dasatinib 0.014 | [3] -0.023 | [4] 0.037 | [5] 0.047 | tipifarnib 0.023 | mubritinib 0.06

VPS36 (UniProt Q86VN1)
inactive: bafetinib 0.018 | [1] 0.031 | nilotinib -0.039 | [2] 0.015 | dasatinib -0.042 | [3] -0.009 | [4] 0.036 | [5] 0.002 | tipifarnib -0.047 | mubritinib 0.026

WARS1 (UniProt G3V3P2)
inactive: bafetinib -0.076

WDR4 isoform 3 (UniProt P57081)
inactive: bafetinib 0.125 | [1] 0.057

WDR13 (UniProt Q9H1Z4)
inactive: bafetinib -0.018 | [1] -0.059 | nilotinib -0.11 | [2] -0.126 | dasatinib 0.024 | [3] -0.055 | [4] 0.041 | [5] 0.073 | tipifarnib -0.066 | mubritinib 0.022

WDR61 (UniProt Q9GZS3)
inactive: bafetinib -0.01 | [1] -0.033 | nilotinib -0.018 | [2] 0.029 | dasatinib 0.007 | [3] -0.075 | [4] 0.023 | [5] 0.012 | tipifarnib -0.01 | mubritinib 0.075

WDR47 (UniProt O94967)
inactive: bafetinib 0.042 | [1] 0.004 | nilotinib 0.02 | [2] -0.046 | dasatinib -0.036 | [3] 0.067 | [4] 0.002 | [5] 0.033 | tipifarnib 0.039 | mubritinib -0.147

WDR59 (UniProt Q6PJI9)
inactive: bafetinib -0.017 | [1] -0.111 | nilotinib -0.042 | [2] -0.094 | dasatinib -0.022 | [3] -0.239 | [4] -0.038 | [5] 0.042 | tipifarnib 0.129 | mubritinib -0.027

VPS28 (UniProt Q9UK41)
inactive: bafetinib -0.017 | [1] -0.021 | nilotinib -0.153 | [2] -0.063 | dasatinib -0.209 | [3] -0.019 | [4] 0.01 | [5] 0.006 | tipifarnib -0.051 | mubritinib 0.046

WDR20 isoform 7 (UniProt Q8TBZ3)
inactive: bafetinib -0.063 | [1] -0.108 | nilotinib -0.085 | [2] -0.034 | dasatinib 0.023 | [3] 0.045 | [4] -0.037 | [5] -0.015 | tipifarnib 0.004 | mubritinib -0.019

Quoted from the results shown (7 entries):
WBP4 (UniProt O75554)
inactive: bafetinib -0.043 | [1] 0.14 | nilotinib 0.001 | [2] -0.006 | dasatinib 0.014 | [3] -0.023 | [4] 0.037 | [5] 0.047 | tipifarnib 0.023 | mubritinib 0.06

VPS36 (UniProt Q86VN1)
inactive: bafetinib 0.018 | [1] 0.031 | nilotinib -0.039 | [2] 0.015 | dasatinib -0.042 | [3] -0.009 | [4] 0.036 | [5] 0.002 | tipifarnib -0.047 | mubritinib 0.026

WARS1 (UniProt G3V3P2)
inactive: bafetinib -0.076

WDR4 isoform 3 (UniProt P57081)
inactive: bafetinib 0.125 | [1] 0.057

WDR13 (UniProt Q9H1Z4)
inactive: bafetinib -0.018 | [1] -0.059 | nilotinib -0.11 | [2] -0.126 | dasatinib 0.024 | [3] -0.055 | [4] 0.041 | [5] 0.073 | tipifarnib -0.066 | mubritinib 0.022

WDR61 (UniProt Q9GZS3)
inactive: bafetinib -0.01 | [1] -0.033 | nilotinib -0.018 | [2] 0.029 | dasatinib 0.007 | [3] -0.075 | [4] 0.023 | [5] 0.012 | tipifarnib -0.01 | mubritinib 0.075

WDR47 (UniProt O94967)
inactive: bafetinib 0.042 | [1] 0.004 | nilotinib 0.02 | [2] -0.046 | dasatinib -0.036 | [3] 0.067 | [4] 0.002 | [5] 0.033 | tipifarnib 0.039 | mubritinib -0.147

(further entries)

VPS45 (UniProt Q9NRW7)
inactive: bafetinib -0.048 | [1] 0.062 | nilotinib -0.086 | [2] -0.091 | dasatinib -0.123 | [3] 0.046 | [4] 0.038 | [5] 0.103 | tipifarnib -0.013 | mubritinib 0.028

VIL1 (UniProt P09327)
inactive: bafetinib -0.091 | [1] 0.037

WBP1L isoform 2 (UniProt Q9NX94)
inactive: bafetinib -0.042

VPS35L (UniProt Q7Z3J2)
inactive: bafetinib 0.006 | [1] -0.008 | nilotinib -0.201 | [2] 0.101 | dasatinib -0.056 | [3] -0.123 | [4] -0.152 | [5] 0.009 | tipifarnib -0.002 | mubritinib 0.02

VTI1A (UniProt Q96AJ9)
inactive: bafetinib -0.004 | [1] -0.061 | nilotinib -0.006 | [2] -0.001 | dasatinib 0.004 | [3] -0.005 | [4] -0.001 | [5] 0.01 | tipifarnib 0.081 | mubritinib -0.007
